1 compound from patent US12496357B2, “Compositions and methods for treating sickle cell disease” (Yale University, priority 2019, dated 2025) can be followed below.

The test system of this assay is SCD mutation (β-globin gene), bulk mouse bone marrow cells. The assay is described as follows: SCD gene correction by ddPCR of gDNA, bulk bone marrow cells treated ex vivo. The assay is classed as cell-based. The note with it: PLGA or PLA-HPG NPs encapsulating sertcPNA 2, with or without inhibitor. As to the method: Bulk mouse bone marrow cells were treated with PLGA NPs encapsulating tcPNA 1A, 2A, 3A and correcting donor DNA molecules.
Bulk bone marrow cells were treated with PLGA NPs encapsulating modified (tc PNA 2A) and unmodified versions (tc PNA 2) of PNA sequence. 72 hours after treatment, gDNA was isolated and analyzed for editing frequencies by ddPCR.
Bulk bone marrow cells were treated with PLGA NPs encapsulating unmodified PNA (tcPNA 2). 72 hours after treatment HSPCs, were isolated from bulk cells via negative and positive selection, and gene editing all three populations was compared.
Bulk bone marrow and HSPCs (lin^−) were treated with tcPNA 2 nanoparticles and combinations of stem cell factor, erythropoietin, and plerixafor. 72 hours after treatment, gDNA was isolated and analyzed for editing frequencies by ddPCR.
Bulk bone marrow cells were treated with tcPNA 2 encapsulated into poly(lactic-co-glycolic acid) (PLGA), or poly(lactic acid)PLA-HPG.
Nanoparticles made from poly(lactic acid) (PLA) conjugated to hyperbranched polyglycerols (HPG), referred to as PLA-HPG, were synthesized using a double emulsion solvent evaporation protocol. Briefly, 50 mg of PLA-HPG was dissolved in 2.4 mL of ethyl acetate and 0.6 mL of DMSO. PNA and donor DNA were heated to 60° C. for 10 minutes, mixed, and immediately added dropwise to the polymer solution under vortex. […]

As to `O=C(CCCCCCC(=O)Nc1ccccc1)NO` [Vorinostat, vorinostat], the “effect of HDAC inhibitor on gene editing frequencies” value is reported as “substantially increased gene editing frequencies”.
